Values joined by “and” are separate entries in the source; they are usually repeats but may differ in a detail not shown here. Identical values can stand only once. At least one structure is not confirmed: it was looked up by name or label, or the drawing left a doubt.
System: Trichophyton mentagrophytes TM 179
Test: Adjuvant activity for hsp60 DNA vaccine against ringworm
Format: in vivo, guinea pigs
Conditions: per animal
[1] = group 3: 200 μg adjuvant at 0 h + 20 μg DNA

With `CCCCCCCCCCCCCCC(CCCCCCCCCCCCCC)C(=O)OC[C@H]1OC(O)[C@H](NC(C)=O)[C@@H](OCC(=O)N[C@@H](CC)C(=O)N[C@H](CCC(=O)O)C(N)=O)[C@@H]1O` (stereo partly drawn) [B30-norAbu-MDP] the “Skin reaction Day 12” value (group 1: 200 μg adjuvant at −48 h + 20 μg DNA electroporation prime and boost) was “++-+++”, the “Skin reaction Day 28” value (group 1: 200 μg adjuvant at −48 h + 20 μg DNA) was 0-+ and the “Skin reaction Day 12” value (group 2: 200 μg adjuvant at −24 h + 20 μg DNA electroporation prime and boost) was “++-+++”. For the same compound, the “Skin reaction Day 28” value (group 2: 200 μg adjuvant at −24 h + 20 μg DNA) was 0-+, the “Skin reaction Day 12” value (group 3: 200 μg adjuvant at 0 h + 20 μg DNA electroporation prime and boost) was “+-++” and the “Skin reaction Day 21” value [1] was “++-+++”. The “Skin reaction Day 28” value [1] was “+-++ and 0-+ (2×)”, the “Skin reaction Day 12” value (group 4: 200 μg adjuvant at +24 h + 20 μg DNA electroporation prime and boost) was “+-++” and the “Skin reaction Day 21” value (group 4: 200 μg adjuvant at +24 h + 20 μg DNA) was 0-+.

Source: patent US8653049B2, “Normuramyl glycopeptide compounds” (priority 2008, dated 2014)
